According to patent US4518586A, “GRF Analogs III” (The Salk Institute for Biological Studies, priority 1983, dated 1985):
Not every detail of the peptide structures is certain; ends, links or a residue may be inferred. Square brackets hold non-standard residues; d marks the D form. Peptide text beside a SMILES is read from it. Nle = CCCC[C@H](N)C(=O)O

System: cells of rat pituitary glands
Assay: in vitro assay of growth hormone release from cultured rat pituitary cells, side-by-side with hpGRF(1-40)-OH standard
Type: cell-based
Settings: GH release at equimolar concentrations relative to synthetic hpGRF(1-40)-OH standard (100%); incubation 3 to 4 hours; ir GH by radioimmunoassay
Experimental: To determine the effectiveness of the various synthetic peptides to promote the release of growth hormone, in vitro assays are carried out using synthetic hpGRF(1-40)-OH as a standard in side-by-side comparison with equimolar concentrations of the various other analogs and fragments synthesized. Cultures are used which include cells of rat pituitary glands removed some three to five days previously. Cultures which are considered optimal for the secretion of growth hormone are used for the comparative testing, in the general manner described in Vale et al. Endocrinology, 91, 562-572 (1972) and as more particularly described in Vale et al. Endocrinology, (1983), in press. Incubation with the substance to be tested is carried out for 3 to 4 hours, and aliquots of the culture medium are removed and processed to measure their contents in immunoreactive GH(ir GH) by a well-characterized radioimmunoassay.

## CCCC[C@H](NC(=O)[C@@H](NC(=O)[C@H](CCC(=O)O)NC(=O)[C@H](Cc1c[nH]cn1)NC(=O)[C@H](CC(C)C)NC(=O)[C@H](CC(C)C)NC(=O)[C@H](CCCCN)NC(=O)[C@H](CCCNC(=N)N)NC(=O)[C@H](C)NC(=O)[C@H](Cc1ccc(O)cc1)NC(=O)[C@@H](CC(C)C)NC(=O)[C@H](CCC(N)=O)NC(=O)CNC(=O)[C@H](CC(C)C)NC(=O)[C@@H](NC(=O)[C@H](CCCNC(=N)N)NC(=O)[C@H](CCCNC(=N)N)NC(=O)[C@H](Cc1ccc(O)cc1)NC(=O)[C@H](CO)NC(=O)[C@H](CO)NC(=O)[C@@H](NC(=O)[C@H](Cc1ccccc1)NC(=O)[C@@H](NC(=O)[C@H](C)NC(=O)[C@H](CC(=O)O)NC(=O)[C@H](C)NC(=O)[C@@H](N)Cc1c[nH]cn1)[C@@H](C)CC)[C@@H](C)O)[C@@H](C)CC)[C@@H](C)CC)C(=O)N[C@@H](CC(N)=O)C(=O)N[C@@H](CCCNC(=N)N)C(N)=O [[D-Leu^17, Nle^27]-rGRF(1-29)-NH2] (H-HADAIFTSSYRRILGQ[dL]YARKLLHEI[Nle]NR-NH2)
  Comparison %: 138%

## CC[C@H](C)[C@H](NC(=O)[C@H](C)NC(=O)[C@H](CC(=O)O)NC(=O)[C@H](C)NC(=O)[C@@H](N)Cc1ccc(O)cc1)C(=O)N[C@@H](Cc1ccccc1)C(=O)N[C@H](C(=O)N[C@@H](CC(N)=O)C(=O)N[C@@H](CO)C(=O)N[C@@H](Cc1ccc(O)cc1)C(=O)N[C@@H](CCCNC(=N)N)C(=O)N[C@@H](CCCCN)C(=O)N[C@H](C(=O)N[C@@H](CC(C)C)C(=O)NCC(=O)N[C@@H](CCC(N)=O)C(=O)N[C@@H](CC(C)C)C(=O)N[C@@H](CO)C(=O)N[C@@H](C)C(=O)N[C@@H](CCCNC(=N)N)C(=O)N[C@@H](CCCCN)C(=O)N[C@@H](CC(C)C)C(=O)N[C@@H](CC(C)C)C(=O)N[C@@H](CCC(N)=O)C(=O)N[C@@H](CC(=O)O)C(=O)N[C@H](C(=O)N[C@@H](CCSC)C(=O)N[C@@H](CO)C(=O)N[C@@H](CCCNC(=N)N)C(=O)N[C@@H](CCC(N)=O)C(=O)N[C@@H](CCC(N)=O)C(=O)NCC(=O)N[C@@H](CCC(=O)O)C(=O)N[C@@H](CO)C(=O)N[C@@H](CC(N)=O)C(=O)N[C@@H](CCC(N)=O)C(=O)N[C@@H](CCC(=O)O)C(=O)N[C@@H](CCCNC(=N)N)C(=O)NCC(=O)N[C@@H](C)C(=O)O)[C@@H](C)CC)C(C)C)[C@@H](C)O [hpGRF(1-40)-OH, reference compound]
  Comparison %: 100%
